# Data taken from PubChem BioAssay AID250 (DTP/NCI, 2004).
# The list is a part of this screen's results and no random one: it covers a few groups of compounds. Other doses and runs of a compound may be missing. T/C gives the treated animals as a percentage of the vehicle group. Where survival is the endpoint, this PubChem deposit counts one and a half times the control or more as active, and values a quarter to a half above the control carry no call in these data; other NCI protocols may use other cut-offs. Some T/C values are marked as having no survivor count here; that says nothing about deaths at the dose. Schedules are NCI's codes, read here as Q, the interval in days (D) or hours (H), X, the number of doses. Some schedule codes hold Z or #, which are not explained here. Brackets with × count equal records among those shown. Some entries were tested several times; the results are listed from low to high.
# Legend:
# [1] = test system: BDF1 mice, L1210 leukemia sc, survival T/C; assay: NCI In Vivo Anticancer Drug Screen. Data for tumor model L1210 Leukemia (subcutaneous) in B6D2F1 (BDF1) mice; conditions: T/C endpoint: median survival time, higher T/C = longer survival
# Description: (§1) The antitumor activity of compounds was measured in mice bearing transplantable tumors. Survival or tumor size were measured and the results are expressed as the measurement made in the treated group (T) divided by the measurement made in the vehicle treated control group (C). The tumor model used in this assay is L1210 Leukemia (subcutaneous) in B6D2F1 (BDF1) mice
# [2] = test system: BDF1 mice, L1210 leukemia sc; assay: as above; conditions: T/C endpoint: median survival time, schedule: Q01DX Z (sc), higher T/C = longer survival
# Description: as §1
# [3] = dose: 23.0 mg/kg/injection, schedule: Q01DX Z (sc), vehicle: saline
# [4] = dose: 14.0 mg/kg/injection, schedule: Q01DX Z (sc), vehicle: methylcellulose (MC)
# [5] = dose: 23.0 mg/kg/injection, schedule: Q01DX Z (sc), vehicle: methylcellulose (MC)
# [6] = dose: 39.0 mg/kg/injection, schedule: Q01DX Z (sc), vehicle: methylcellulose (MC)
# [7] = dose: 65.0 mg/kg/injection, schedule: Q01DX Z (sc), vehicle: methylcellulose (MC)
# [8] = dose: 14.0 mg/kg/injection, schedule: Q01DX Z (sc), vehicle: saline
# [9] = dose: 39.0 mg/kg/injection, schedule: Q01DX Z (sc), vehicle: saline
# [10] = dose: 65.0 mg/kg/injection, schedule: Q01DX Z (sc), vehicle: saline
# [11] = dose: 5.0 mg/kg/injection, schedule: Q01DX Z (sc), vehicle: methylcellulose (MC)
# [12] = dose: 8.4 mg/kg/injection, schedule: Q01DX Z (sc), vehicle: methylcellulose (MC)
compound,measurement,setting,value
CC(C(=O)O)N(CCCl)CCCl (stereo unspecified),T/C,"[1]; dose: 1.8 mg/kg/injection, schedule: Q01DX Z (sc), vehicle: saline",111 % of control [survivor count not shown]
same,T/C,[1]; [3],116 % of control [survivor count not shown]
same,T/C,"[2]; dose: 14.0 mg/kg/injection, vehicle: saline",127 % of control [survivor count not shown]
ClCCN(CCCl)Cc1nc2ccc(Cl)cc2[nH]1,T/C,[1]; [4],100 % of control [survivor count not shown]
same,T/C,[1]; [5],100 % of control [survivor count not shown]
same,T/C,[1]; [6],100 % of control [survivor count not shown]
same,T/C,[1]; [7],88 % of control [survivor count not shown]
ClCCNCCCl,T/C,"[1]; dose: 10.0 mg/kg/injection, schedule: Q01DX009 (ip), vehicle: saline",90 % of control [survivor count not shown]
same,T/C,[1]; [8],100 % of control [survivor count not shown] (2×)
same,T/C,"[1]; dose: 20.0 mg/kg/injection, schedule: Q01DX009 (ip), vehicle: saline",100 % of control [survivor count not shown]
same,T/C,[1]; [5],100 % of control [survivor count not shown]
same,T/C,[1]; [3],100 % of control [survivor count not shown] (3×)
same,T/C,[1]; [6],104 % of control [survivor count not shown]
same,T/C,[1]; [9],100 [survivor count not shown] and 105 % of control [survivor count not shown]
same,T/C,"[1]; dose: 40.0 mg/kg/injection, schedule: Q01DX009 (ip), vehicle: saline",110 % of control [survivor count not shown]
same,T/C,[1]; [7],122 % of control [survivor count not shown]
same,T/C,[1]; [10],109 [survivor count not shown] and 113 % of control [survivor count not shown]
same,T/C,"[1]; dose: 80.0 mg/kg/injection, schedule: Q01DX009 (ip), vehicle: saline",115 % of control [survivor count not shown]
same,T/C,"[1]; dose: 108.0 mg/kg/injection, schedule: Q01DX Z (sc), vehicle: saline",118 [survivor count not shown] and 122 % of control [survivor count not shown]
same,T/C,"[1]; dose: 180.0 mg/kg/injection, schedule: Q01DX Z (sc), vehicle: methylcellulose (MC)",109 % of control [survivor count not shown]
same,T/C,"[1]; dose: 180.0 mg/kg/injection, schedule: Q01DX Z (sc), vehicle: saline",118 % of control [survivor count not shown]
same,T/C,"[1]; dose: 180.0 mg/kg/injection, schedule: Q03DX Z (sc), vehicle: saline",150 % of control [survivor count not shown]
same,T/C,"[1]; dose: 300.0 mg/kg/injection, schedule: Q01DX Z (sc), vehicle: methylcellulose (MC)",100 % of control [survivor count not shown]
same,T/C,"[1]; dose: 300.0 mg/kg/injection, schedule: Q01DX Z (sc), vehicle: saline",100 % of control [survivor count not shown]
same,T/C,"[1]; dose: 300.0 mg/kg/injection, schedule: Q03DX Z (sc), vehicle: saline",120 % of control [survivor count not shown]
same,T/C,"[1]; dose: 500.0 mg/kg/injection, schedule: Q03DX Z (sc), vehicle: saline",120 % of control [survivor count not shown]
same,T/C,"[2]; dose: 65.0 mg/kg/injection, vehicle: saline",133 % of control [survivor count not shown]
same,T/C,"[2]; dose: 108.0 mg/kg/injection, vehicle: methylcellulose (MC)",127 % of control [survivor count not shown]
same,T/C,"[2]; dose: 108.0 mg/kg/injection, vehicle: saline",136 % of control [survivor count not shown]
same,T/C,"[2]; dose: 180.0 mg/kg/injection, vehicle: saline",133 % of control [survivor count not shown]
O=C(O)CCOc1ccccc1N(CCCl)CCCl,T/C,"[1]; dose: 3.75 mg/kg/injection, schedule: Q01DX Z (sc), vehicle: carboxymethylcellulose (CMC)",88 % of control [survivor count not shown]
same,T/C,"[1]; dose: 7.5 mg/kg/injection, schedule: Q01DX Z (sc), vehicle: carboxymethylcellulose (CMC)",88 % of control [survivor count not shown]
same,T/C,"[1]; dose: 15.0 mg/kg/injection, schedule: Q01DX Z (sc), vehicle: carboxymethylcellulose (CMC)",88 % of control [survivor count not shown]
same,T/C,"[1]; dose: 18.7 mg/kg/injection, schedule: Q01DX Z (sc), vehicle: carboxymethylcellulose (CMC)",100 % of control [survivor count not shown]
same,T/C,"[1]; dose: 30.0 mg/kg/injection, schedule: Q01DX Z (sc), vehicle: carboxymethylcellulose (CMC)",88 % of control [survivor count not shown]
same,T/C,"[1]; dose: 37.5 mg/kg/injection, schedule: Q01DX Z (sc), vehicle: carboxymethylcellulose (CMC)",100 % of control [survivor count not shown]
same,T/C,"[1]; dose: 65.0 mg/kg/injection, schedule: Q01DX Z (sc), vehicle: carboxymethylcellulose (CMC)",94 % of control [survivor count not shown]
same,T/C,"[1]; dose: 75.0 mg/kg/injection, schedule: Q01DX Z (sc), vehicle: carboxymethylcellulose (CMC)",100 % of control [survivor count not shown]
same,T/C,"[1]; dose: 108.0 mg/kg/injection, schedule: Q01DX Z (sc), vehicle: carboxymethylcellulose (CMC)",100 % of control [survivor count not shown]
same,T/C,"[1]; dose: 150.0 mg/kg/injection, schedule: Q01DX Z (sc), vehicle: carboxymethylcellulose (CMC)",112 % of control [survivor count not shown]
same,T/C,"[1]; dose: 180.0 mg/kg/injection, schedule: Q01DX Z (sc), vehicle: carboxymethylcellulose (CMC)",111 % of control [survivor count not shown]
same,T/C,"[1]; dose: 300.0 mg/kg/injection, schedule: Q01DX Z (sc), vehicle: carboxymethylcellulose (CMC)",111 % of control [survivor count not shown]
COc1cccc(N(CCCl)CCCl)c1OC,T/C,"[1]; dose: 1.8 mg/kg/injection, schedule: Q01DX Z (sc), vehicle: methylcellulose (MC)",100 % of control [survivor count not shown]
same,T/C,"[1]; dose: 3.0 mg/kg/injection, schedule: Q01DX Z (sc), vehicle: methylcellulose (MC)",95 % of control [survivor count not shown]
same,T/C,[1]; [11],90 % of control [survivor count not shown]
same,T/C,[1]; [12],95 % of control [survivor count not shown]
same,T/C,[1]; [4],90 % of control [survivor count not shown]
same,T/C,[1]; [5],90 % of control [survivor count not shown]
same,T/C,[1]; [7],90 % of control [survivor count not shown]
same,T/C,"[1]; dose: 108.0 mg/kg/injection, schedule: Q01DX Z (sc), vehicle: methylcellulose (MC)",95 % of control [survivor count not shown]
ClCCN(CCCl)Cc1nc2ccccc2[nH]1,T/C,[1]; [11],104 % of control [survivor count not shown]
same,T/C,[1]; [12],104 % of control [survivor count not shown]
same,T/C,"[1]; dose: 8.4 mg/kg/injection, schedule: Q01DX Z (sc), vehicle: saline",100 % of control [survivor count not shown]
same,T/C,[1]; [4],100 % of control [survivor count not shown] (2×)
same,T/C,[1]; [8],111 % of control [survivor count not shown]
same,T/C,[1]; [5],105 [survivor count not shown] and 109 % of control [survivor count not shown]
same,T/C,[1]; [3],105 % of control [survivor count not shown]
same,T/C,[1]; [6],100 [survivor count not shown] and 111 % of control [survivor count not shown]
same,T/C,[1]; [9],111 % of control [survivor count not shown]
same,T/C,[1]; [7],104 % of control [survivor count not shown]
same,T/C,[1]; [10],100 % of control [survivor count not shown]
